This note sets out measurements from PubChem BioAssay AID252 (DTP/NCI, 2004).

The experiment relates to BDF1 mice, intracerebral L1210 leukemia, survival T/C. The experiment in a line: NCI In Vivo Anticancer Drug Screen. Data for tumor model L1210 Leukemia (intracerebral) in B6D2F1 (BDF1) mice. Particulars: higher T/C = longer survival. In short, it runs like this: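 Antitumour effect is judged in mice with transplanted tumour by comparing survival of treated (T) against vehicle-dosed (C) groups as T/C.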

Where [1] appears, read: T/C endpoint: mean survival time, dose: 91.0 mg/kg/injection, schedule: Q01DX001 (oral), vehicle: other.

The structures appear in SMILES notation. The list shows only some results of the screen, not a fair sample: it gathers tests that were run many times, whatever their T/C, doses with no T/C, and many T/C values between a quarter and a half above the control. Further doses and runs are listed elsewhere. T/C is the treated group as % of the vehicle group. Some doses have a count of surviving animals in place of a T/C: the source files T/C as zero there, which appears to mark a toxic dose or a test without result, not a measured value. Some doses without a T/C left all or most animals alive at the check, yet need not have been tolerated: the source hardly ever lists a survival T/C far under the control, and the zero likely stands for such cases as well. Counts of survivors are from the toxicity check (mostly the fifth day) where no day follows; animals may have died later. Schedules are NCI's codes, read here as Q, the interval in days (D) or hours (H), X, the number of doses. Some entries were tested several times; the values are given in rising order. Some schedule codes hold Z or #, which are not explained here. Where survival is the endpoint, this PubChem deposit counts one and a half times the control or more as active, and values a quarter to a half above the control carry no call in these data; other NCI protocols may use other cut-offs. Some T/C values are followed by the survivors on the day toxicity was checked, most often the fifth; without a count, all were alive then. Marks such as (2×) count equal records among those shown.

Consider `CC1CCC(NC(=O)N(CCCl)N=O)CC1` (centres undefined), for which the survivor count (T/C endpoint: mean survival time, dose: 2.0 mg/kg/injection, schedule: Q01DX001 (ip), vehicle: saline) is on record as 4 of 10; the survivor count (T/C endpoint: mean survival time, dose: 32.0 mg/kg/injection, schedule: Q01DX009 (ip), vehicle: other) was 9 of 10; the survivor count (T/C endpoint: mean survival time, dose: 64.0 mg/kg/injection, schedule: Q01DX009 (ip), vehicle: other) is 8 of 10; the survivor count (T/C endpoint: mean survival time, dose: 80.0 mg/kg/injection, schedule: Q01DX001 (ip), vehicle: other) is on record as 8 of 10; the survivor count under setting [1] was 10 of 10; the survivor count (T/C endpoint: mean survival time, dose: 160.0 mg/kg/injection, schedule: Q01DX001 (ip), vehicle: other) was 7 of 10. Moreover, the survivor count was 5 of 10 (T/C endpoint: mean survival time, dose: 256.0 mg/kg/injection, schedule: Q01DX001 (ip), vehicle: clinical formulation); 3 of 10 (T/C endpoint: mean survival time, dose: 256.0 mg/kg/injection, schedule: Q01DX001 (ip), vehicle: saline); 3 of 10 (T/C endpoint: mean survival time, dose: 512.0 mg/kg/injection, schedule: Q01DX001 (oral), vehicle: clinical formulation); 0 of 10 (T/C endpoint: mean survival time, dose: 1024.0 mg/kg/injection, schedule: Q01DX001 (oral), vehicle: clinical formulation). In addition, the T/C is, setting by setting: (T/C endpoint: mean survival time, dose: 2.5 mg/kg/injection, schedule: Q01DX009 (ip), vehicle: saline) 138 % of control; (T/C endpoint: mean survival time, dose: 3.2 mg/kg/injection, schedule: Q01DX001 (ip), vehicle: other) 103 (3×), 104, 105 (2×), 107, 112, 115, 116, 118, 142, 143, 174 % of control; (T/C endpoint: mean survival time, dose: 4.0 mg/kg/injection, schedule: Q01DX009 (ip), vehicle: other) 144 % of control; (T/C endpoint: mean survival time, dose: 5.4 mg/kg/injection, schedule: Q01DX001 (oral), vehicle: other) 133 % of control; (T/C endpoint: mean survival time, dose: 6.0 mg/kg/injection, schedule: Q01DX001 (ip), vehicle: other) 107 (2×), 108, 109, 112 (2×), 115 (2×), 116 [9 of 10 alive], 119, 122, 127, 180 % of control (2×); (T/C endpoint: mean survival time, dose: 6.25 mg/kg/injection, schedule: Q01DX009 (ip), vehicle: Klucel (hydroxypropylcellulose) (HPC)) 128 % of control. For the same compound, the T/C runs as follows: (T/C endpoint: mean survival time, dose: 10.0 mg/kg/injection, schedule: Q01DX001 (ip), vehicle: other) 142 % of control; (T/C endpoint: mean survival time, dose: 13.0 mg/kg/injection, schedule: Q01DX001 (ip), vehicle: other, evaluated on day 45) 119 (2×), 120, 125, 128, 129, 132, 141, 150, 151, 155, 166, 175, 193 % of control; (T/C endpoint: mean survival time, dose: 13.0 mg/kg/injection, schedule: Q01DX001 (ip), vehicle: other, run until all animals had died) 130 and 136 % of control; (T/C endpoint: mean survival time, dose: 16.0 mg/kg/injection, schedule: Q01DX001 (ip), vehicle: Klucel (hydroxypropylcellulose) (HPC)) 128 % of control; (T/C endpoint: mean survival time, dose: 16.0 mg/kg/injection, schedule: Q01DX001 (ip), vehicle: clinical formulation) 138 % of control; (T/C endpoint: mean survival time, dose: 18.0 mg/kg/injection, schedule: Q01DX001 (ip), vehicle: other, evaluated on day 45) 133 and 144 % of control. Further, the T/C is 136 % of control (T/C endpoint: mean survival time, dose: 18.0 mg/kg/injection, schedule: Q01DX001 (ip), vehicle: other, run until all animals had died); 143 % of control (T/C endpoint: mean survival time, dose: 20.0 mg/kg/injection, schedule: Q01DX001 (ip), vehicle: other); 142 % of control (T/C endpoint: mean survival time, dose: 24.0 mg/kg/injection, schedule: Q01DX001 (ip), vehicle: other); 171 and 249 % of control (T/C endpoint: mean survival time, dose: 24.0 mg/kg/injection, schedule: Q01DX001 (oral), vehicle: other, evaluated on day 45); 173, 175, 200 % of control (T/C endpoint: mean survival time, dose: 24.0 mg/kg/injection, schedule: Q01DX001 (oral), vehicle: other, evaluated on day 60); 164, 196, 200, 202, 207, 234, 271, 277, 281, 307, 355, 383, 385, 387 % of control (T/C endpoint: mean survival time, dose: 27.0 mg/kg/injection, schedule: Q01DX001 (ip), vehicle: other, evaluated on day 45). The T/C runs as follows: (T/C endpoint: mean survival time, dose: 27.0 mg/kg/injection, schedule: Q01DX001 (ip), vehicle: other, run until all animals had died) 145 % of control; (T/C endpoint: mean survival time, dose: 32.0 mg/kg/injection, schedule: Q01DX001 (ip), vehicle: Klucel (hydroxypropylcellulose) (HPC)) 133 % of control; (T/C endpoint: mean survival time, dose: 32.0 mg/kg/injection, schedule: Q01DX001 (ip), vehicle: saline) 142 % of control; (T/C endpoint: mean survival time, dose: 36.0 mg/kg/injection, schedule: Q01DX001 (ip), vehicle: other, evaluated on day 45) 163 and 185 % of control; (T/C endpoint: mean survival time, dose: 36.0 mg/kg/injection, schedule: Q01DX001 (ip), vehicle: other, evaluated on day 60) 192, 292, 364 % of control; (T/C endpoint: mean survival time, dose: 36.0 mg/kg/injection, schedule: Q01DX001 (ip), vehicle: other, run until all animals had died) 208 % of control. Further, the T/C is, setting by setting: (T/C endpoint: mean survival time, dose: 54.0 mg/kg/injection, schedule: Q01DX001 (ip), vehicle: other, evaluated on day 45) 126, 135, 185 (2×), 196, 205, 211 (2×), 222, 227, 258, 318, 359, 371 % of control; (T/C endpoint: mean survival time, dose: 54.0 mg/kg/injection, schedule: Q01DX001 (ip), vehicle: other, evaluated on day 60) 134, 198, 264 % of control; (T/C endpoint: mean survival time, dose: 54.0 mg/kg/injection, schedule: Q01DX001 (ip), vehicle: other, run until all animals had died) 200 % of control; (T/C endpoint: mean survival time, dose: 64.0 mg/kg/injection, schedule: Q01DX001 (ip), vehicle: Klucel (hydroxypropylcellulose) (HPC)) 138 % of control; (T/C endpoint: mean survival time, dose: 64.0 mg/kg/injection, schedule: Q01DX001 (ip), vehicle: clinical formulation) 139 % of control [9 of 10 alive]; (T/C endpoint: mean survival time, dose: 64.0 mg/kg/injection, schedule: Q01DX001 (ip), vehicle: saline) 128 % of control. For the same compound, the T/C (T/C endpoint: mean survival time, dose: 64.0 mg/kg/injection, schedule: Q01DX001 (oral), vehicle: clinical formulation) is 138 % of control; the T/C (T/C endpoint: mean survival time, dose: 72.0 mg/kg/injection, schedule: Q01DX001 (ip), vehicle: other) was 144 % of control; the T/C (T/C endpoint: mean survival time, dose: 90.0 mg/kg/injection, schedule: Q01DX001 (oral), vehicle: other) is 139 % of control; the T/C under setting [1] was 144 % of control; the T/C (T/C endpoint: mean survival time, dose: 128.0 mg/kg/injection, schedule: Q01DX001 (oral), vehicle: clinical formulation) was 133 % of control; the T/C (T/C endpoint: median survival time, dose: 8.0 mg/kg/injection, schedule: Q01DX001 (ip), vehicle: saline) was 129 % of control. In addition, the T/C (T/C endpoint: median survival time, dose: 16.0 mg/kg/injection, schedule: Q01DX001 (ip), vehicle: clinical formulation) is 144 % of control; the T/C (T/C endpoint: median survival time, dose: 64.0 mg/kg/injection, schedule: Q01DX001 (ip), vehicle: clinical formulation) was 129 % of control; the T/C (T/C endpoint: median survival time, dose: 64.0 mg/kg/injection, schedule: Q01DX001 (ip), vehicle: saline) was 125 % of control; the T/C (T/C endpoint: median survival time, dose: 128.0 mg/kg/injection, schedule: Q01DX001 (oral), vehicle: clinical formulation) is 143 % of control.
As to `O=C(Nc1ccc(C2=NCCN2)cc1)c1ccc(C(=O)Nc2ccc(C3=NCCN3)cc2)c(Cl)c1`, the survivor count is, setting by setting: (T/C endpoint: mean survival time, dose: 75.0 mg/kg/injection, schedule: Q01DX Z (ip), vehicle: carboxymethylcellulose (CMC)) 3 of 6; (T/C endpoint: mean survival time, dose: 100.0 mg/kg/injection, schedule: Q01DX Z (ip), vehicle: carboxymethylcellulose (CMC)) 0 of 6; (T/C endpoint: mean survival time, dose: 110.0 mg/kg/injection, schedule: Q01DX001 (ip), vehicle: carboxymethylcellulose (CMC)) 0 of 10 and 4 of 10.
For `NC(C/[N+]([O-])=N/O)C(=O)O` (centres undefined), the survivor count (T/C endpoint: mean survival time, dose: 200.0 mg/kg/injection, schedule: Q01DX009 (ip), vehicle: other) is given as 9 of 10.
